## Assay results

From PubChem BioAssay record AID912 (NCATS, 2007).

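A cell-based FRET test of anthrax lethal toxin entry, tracked through the 460 nm emission signal; the cell line is not named here. Each compound was tested as a concentration series from about 0.0005 to 40 µM. The number is the fitted AC50 of the 460 nm signal alone; lower values mean a more potent effect. A falling signal goes with compounds filed as inhibitors or cytotoxic, a rising one with activators or fluorescent compounds (inferred from the filed classes).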

Values are in µM. Common to all entries: measured here: 460 nm channel. This is a side read-out of the assay, for part of the compounds, not drawn at random. A potency from a partial, single-point or poor curve is only a rough figure. The first word of each remark tells which way the curve ran; it can be opposite to the aim of the assay.

Compound,AC50 (µM),remark
COc1ccc(-n2c(=O)c(-c3cccs3)nc3cnc(Oc4ccccc4)nc32)cc1,12.59,"rising, partial curve"
Cn1c(C(=O)NCCc2ccsc2)cc2c(=O)n(C)c3ccccc3c21,6.31,"falling, partial curve"
COc1cc2ccc(=O)oc2cc1O,1.995,"rising, full curve"
Cc1c(Cc2ccccc2)c(=O)oc2c(CN(C)C)c(O)c(Cl)cc12,10,"rising, partial curve"
COC(=O)/C=C\c1cc(O)ccc1O,7.943,"falling, partial curve"
CCCn1c(C(C)NC(=O)c2ccccc2)nc2ccccc21 (centres undefined),12.59,"falling, partial curve"
Cc1ccc(NC(=O)CSC2=C(C#N)C(c3ccc4c(c3)OCO4)C3=C(CCCC3=O)N2)c(C)c1 (centres undefined),10,"falling, partial curve"
CN1C[C@@H](CNC(=O)OCc2ccccc2)C[C@H]2c3cccc4c3c(cn4C)C[C@@H]21,25.12,"falling, partial curve"
CC[C@@H]1Cc2cc(O)ccc2C2=C1c1ccc(O)cc1C[C@H]2CC,25.12,"falling, partial curve"
c1ccc(-c2nn3c(-c4ccco4)nnc3s2)nc1,31.62,"falling, single point"
CC(=O)N1c2ccccc2NC2=C(C(=O)CCC2)C1c1cccnc1 (centres undefined),0.005012,"falling, full curve, poor fit"
COc1ccc(-c2nnc(SCC(=O)N3CCCc4ccccc43)o2)cc1OC,5.012,"falling, single point"
COc1nc(-c2ccccc2)ccc1-c1noc(-c2ccccc2)n1,25.12,"falling, partial curve, poor fit"
O=C1c2ccccc2C(Nc2ccc(S(=O)(=O)N3CCCCC3)cc2)N1c1ccccn1 (centres undefined),31.62,"falling, single point"
COC(=O)COc1ccc(S(=O)(=O)Nc2ccc3c(c2)OCO3)cc1,7.943,"falling, partial curve"
CCCC[P+](CCCC)(CCCC)Cc1ccc(NC(=O)[C@@H](Cc2ccc3ccccc3c2)NC(=NC2CCCCC2)NC2CCCCC2)cc1,12.59,"falling, single point"
CC(=O)Oc1ccccc1C(=O)O,31.62,"falling, single point"
O=C(c1ccc2c(=O)n(Cc3ccco3)c(=S)[nH]c2c1)N1CCN(c2ccccc2)CC1,3.162,"rising, single point"
COc1cccc2c1OC1(C)CC2NC(=O)N1c1cccc(C(=O)Nc2ccc3c(c2)OCCO3)c1 (centres undefined),10,"falling, partial curve"
CC(C)Oc1ccc(C(=O)Nc2ccc(N(C)C)cc2)cc1,0.01995,"falling, full curve"
Cc1ccc2[nH]c(=O)c(CN(CCc3ccccc3)C(c3nnnn3Cc3ccco3)C(C)C)cc2c1 (centres undefined),12.59,"falling, partial curve"
CCN(CC)CCCNC(=O)c1cc2c(-c3ccc(Cl)cc3)nn(C)c2s1,3.981,"falling, partial curve"
COc1ccc(C2CC(c3c(O)cc(C)oc3=O)=NCCS2)c(OC)c1 (centres undefined),0.05012,"falling, full curve, poor fit"
CCOc1ccc2nc(NC(=O)CN3CCC(n4nnc5cc(F)ccc54)CC3)sc2c1,15.85,"falling, single point"
O=c1c2ccccc2nnn1Cc1ccccn1,5.012,"rising, single point"
CC[C@H](C(=O)[C@H](C)[C@H](O)[C@H](C)CCc1ccc(C)c(O)c1C(=O)O)[C@H]1O[C@](CC)([C@@H]2CC[C@@](O)(CC)[C@H](C)O2)C[C@H]1C,0.3162,"falling, full curve"
CCC1Oc2ccccc2N(CC(=O)NCCCN2CCC(C)CC2)C1=O (centres undefined),19.95,"falling, single point"
c1ccc2c(c1)Cc1cc3cc4c(cc3nc1-2)OCO4,31.62,"falling, single point"
Cc1ccccc1N(C(=O)Cn1nnc2ccccc21)C(C(=O)NCc1ccco1)c1ccncc1 (centres undefined),3.981,"rising, partial curve"
COc1ccccc1-c1noc(-c2ccco2)n1,0.003162,"falling, full curve, poor fit"
O=C(O)c1ccc(S(=O)(=O)NC2CCCCC2)cc1,5.012,"rising, single point"
COC(=O)c1ccccc1NC(=O)Cn1c(-c2nonc2N)nc2ccccc21,0.1995,"falling, full curve"
CCc1c(C)c2ccc(OCC(=O)OC(C)C)c(C)c2oc1=O,0.00631,"falling, full curve, poor fit"
CCCC(=O)C1=C(c2ccccc2)C(C#N)(C#N)C(C#N)=C1N,0.01995,"falling, full curve, poor fit"
CC(C)OC(=O)c1c(NC(=O)c2cccs2)sc2c1CCCC2,0.7943,"falling, full curve, poor fit"
CCNc1ncc2nc(-c3cc(F)cc(F)c3)c(=O)n(CCC#N)c2n1,2.512,"rising, full curve"
CCOc1ccccc1N(CC(=O)NC1CCCC1)C(=O)CCCC(=O)Nc1ccccn1,5.012,"rising, single point"

Repeated from the top, 3 entries:

With COc1ccc(-n2c(=O)c(-c3cccs3)nc3cnc(Oc4ccccc4)nc32)cc1 the assay gave AC50 12.59 µM (rising, partial curve).
With Cn1c(C(=O)NCCc2ccsc2)cc2c(=O)n(C)c3ccccc3c21 the assay gave AC50 6.31 µM (falling, partial curve).
With COc1cc2ccc(=O)oc2cc1O the assay gave AC50 1.995 µM (rising, full curve).